Laboratory results published in doi:10.1101/2022.08.20.504624 (bioRxiv, 2022).
Results are given in words; binding and its absence hold for the method and conditions named. For some of these results: Binding calls can cover weak binding; strength is not graded here.

What was measured:
[1] = molecular target: T1, Chlamydomonas IFT88, full length (Chlamydomonas reinhardtii) (UniProt Q9FPW0); test: cross-linking
T1 sequence: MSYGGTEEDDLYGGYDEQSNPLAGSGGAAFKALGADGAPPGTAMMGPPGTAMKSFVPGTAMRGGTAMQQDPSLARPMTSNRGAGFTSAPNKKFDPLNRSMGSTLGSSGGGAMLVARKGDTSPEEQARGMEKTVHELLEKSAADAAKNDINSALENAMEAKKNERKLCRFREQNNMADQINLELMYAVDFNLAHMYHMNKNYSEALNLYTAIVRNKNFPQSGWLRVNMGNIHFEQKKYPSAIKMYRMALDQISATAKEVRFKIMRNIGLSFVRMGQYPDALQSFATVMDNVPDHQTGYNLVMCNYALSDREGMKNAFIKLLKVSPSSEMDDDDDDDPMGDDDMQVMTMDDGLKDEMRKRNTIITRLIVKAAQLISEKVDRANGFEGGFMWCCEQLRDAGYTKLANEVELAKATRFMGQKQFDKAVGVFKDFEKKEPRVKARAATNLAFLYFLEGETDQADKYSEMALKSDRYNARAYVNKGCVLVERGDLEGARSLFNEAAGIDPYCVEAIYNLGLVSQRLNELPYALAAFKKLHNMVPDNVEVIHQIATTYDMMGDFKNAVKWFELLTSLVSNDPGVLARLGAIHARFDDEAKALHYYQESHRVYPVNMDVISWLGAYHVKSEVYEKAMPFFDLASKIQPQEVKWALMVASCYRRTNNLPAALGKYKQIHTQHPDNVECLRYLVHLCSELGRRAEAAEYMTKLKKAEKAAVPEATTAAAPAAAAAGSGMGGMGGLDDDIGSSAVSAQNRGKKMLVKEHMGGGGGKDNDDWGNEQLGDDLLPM

[2] = molecular target: Chlamydomonas IFT70 (Chlamydomonas reinhardtii); test: cross-linking
[3] = molecular target: Chlamydomonas IFT70 (Chlamydomonas reinhardtii); test: crystal structure
[4] = molecular target: Chlamydomonas IFT38, full length (Chlamydomonas reinhardtii); test: cross-linking

For Chlamydomonas IFT38, full length, which binding [1] is on record?
The binding was “binds”.

B1: Chlamydomonas IFT46_(188-319) (domain or fragment, Chlamydomonas reinhardtii, UniProt A2T2X4 188-319, looked up)
chain: QLRQLSKEAPGAKADMVGRLEHTDENKAKKIQQWIASINDIHKAKPAATVNYSKRMPEIEALMQEWPPEVETFLKTMHMPSGDVELDIKTYARLVCTLLDIPVYDDPVESLHVLFTLYLEFKNNPIFRQHME
B1 was tested. Which binding [2] did it give?
Its binding is “no binding”.

B2: Chlamydomonas IFT46_(165-319) (domain or fragment, UniProt A2T2X4 165-319)
chain: DYLGLKVLDEPAAKQSDPTVLTLQLRQLSKEAPGAKADMVGRLEHTDENKAKKIQQWIASINDIHKAKPAATVNYSKRMPEIEALMQEWPPEVETFLKTMHMPSGDVELDIKTYARLVCTLLDIPVYDDPVESLHVLFTLYLEFKNNPIFRQHME
With B2 as the molecule, how does the binding [3] read?
The binding was “no binding”.

B3: Chlamydomonas IFT20, full length (protein, UniProt Q8LLV9 1-135)
chain: MDAVDRGVYFDEDFHVRILDVDKYNASKSLQDNTNVFINNIQNMQGLVDKYVSAIDQQVERLEAEKLKAIGLRNRVAALSEERKRKQKEQERMLAEKQEELERLQMEEQSLIKVKGEQELMIQKLSDSSSGAAYV
How did the binding [4] turn out when B3 was run?
Its binding is “binds”.
